{
  "source": "patent US6191152A",
  "about": "“2-(1,2,4-triazole-1-yl)-1,3,4-thiadiazole derivatives having an effect on the C.N.S. and the heart” (EGIS Gyogyszergyar Rt., priority 1997, dated 2001)",
  "origin": "cited, not measured here",
  "key": {"[1]": {"test_system": "rats", "settings": "Kennett et al.; cited from earlier work"}, "[2]": {"test_system": "human beings", "settings": "Kahn and Weltzer; cited from earlier work"}},
  "note": "At least one structure is not confirmed: it was looked up by name or label, or the drawing left a doubt.",
  "data": [
    {"molecule": "Clc1cccc(N2CCNCC2)c1", "note": "[m-chlorophenylpiperazine]", "values": [
      {"measurement": "anxiety in rats", "setting": "[1]", "value": "induces anxiety"},
      {"measurement": "anxiety in human beings", "setting": "[2]", "value": "induces anxiety"}
    ]}
  ]
}
